Experimental data reported in patent publication US20250283871A1, “COMPOSITIONS AND METHODS FOR MODULATING THE INTERACTION BETWEEN SS18-SSX FUSION ONCOPROTEIN AND NUCLEOSOMES” (Dana-Farber Cancer Institute, Inc., priority 2020, published 2025).

B1: ATP2A1 (protein, UniProt O14983 1-1001, looked up)
Sarcoplasmic/endoplasmic …: MEAAHAKTTEECLAYFGVSETTGLTPDQVKRNLEKYGLNELPAEEGKTLWELVIEQFEDLLVRILLLAACISFVLAWFEEGEETITAFVEPFVILLILIANAIVGVWQERNAENAIEALKEYEPEMGKVYRADRKSVQRIKARDIVPGDIVEVAVGDKVPADIRILAIKSTTLRVDQSILTGESVSVIKHTEPVPDPRAVNQDKKNMLFSGTNIAAGKALGIVATTGVGTEIGKIRDQMAATEQDKTPLQQKLDEFGEQLSKVISLICVAVWLINIGHFNDPVHGGSWFRGAIYYFKIAVALAVAAIPEGLPAVITTCLALGTRRMAKKNAIVRSLPSVETLGCTSVICSDKTGTLTTNQMSVCKMFIIDKVDGDICLLNEFSITGSTYAPEGEVLKNDKPVRPGQYDGLVELATICALCNDSSLDFNEAKGVYEKVGEATETALTTLVEKMNVFNTDVRSLSKVERANACNSVIRQLMKKEFTLEFSRDRKSMSVYCSPAKSSRAAVGNKMFVKGAPEGVIDRCNYVRVGTTRVPLTGPVKEKIMAVIKEWGTGRDTLRCLALATRDTPPKREEMVLDDSARFLEYETDLTFVGVVGMLDPPRKEVTGSIQLCRDAGIRVIMITGDNKGTAIAICRRIGIFGENEEVADRAYTGREFDDLPLAEQREACRRACCFARVEPSHKSKIVEYLQSYDEITAMTGDGVNDAPALKKAEIGIAMGSGTAVAKTASEMVLADDNFSTIVAAVEEGRAIYNNMKQFIRYLISSNVGEVVCIFLTAALGLPEALIPVQLLWVNLVTDGLPATALGFNPPDLDIMDRPPRSPKEPLISGWLFFRYMAIGGYVGAATVGAAAWWFLYAEDGPHVNYSQLTHFMQCTEDNTHFEGIDCEVFEAPEPMTMALSVLVTIEMCNALNSLSENQSLLRMPPWVNIWLLGSICLSMSLHFLILYVDPLPMIFKLRALDLTQWLMVLKISLPVIGLDEILKFVARNYLEDPEDERRK
B2: CPSF2 (protein, UniProt Q9P2I0 1-782, looked up)
Cleavage and polyadenylation …: MTSIIKLTTLSGVQEESALCYLLQVDEFRFLLDCGWDEHFSMDIIDSLRKHVHQIDAVLLSHPDPLHLGALPYAVGKLGLNCAIYATIPVYKMGQMFMYDLYQSRHNTEDFTLFTLDDVDAAFDKIQQLKFSQIVNLKGKGHGLSITPLPAGHMIGGTIWKIVKDGEEEIVYAVDFNHKREIHLNGCSLEMLSRPSLLITDSFNATYVQPRRKQRDEQLLTNVLETLRGDGNVLIAVDTAGRVLELAQLLDQIWRTKDAGLGVYSLALLNNVSYNVVEFSKSQVEWMSDKLMRCFEDKRNNPFQFRHLSLCHGLSDLARVPSPKVVLASQPDLECGFSRDLFIQWCQDPKNSIILTYRTTPGTLARFLIDNPSEKITEIELRKRVKLEGKELEEYLEKEKLKKEAAKKLEQSKEADIDSSDESDIEEDIDQPSAHKTKHDLMMKGEGSRKGSFFKQAKKSYPMFPAPEERIKWDEYGEIIKPEDFLVPELQATEEEKSKLESGLTNGDEPMDQDLSDVPTKCISTTESIEIKARVTYIDYEGRSDGDSIKKIINQMKPRQLIIVHGPPEASQDLAECCRAFGGKDIKVYMPKLHETVDATSETHIYQVRLKDSLVSSLQFCKAKDAELAWIDGVLDMRVSKVDTGVILEEGELKDDGEDSEMQVEAPSDSSVIAQQKAMKSLFGDDEKETGEESEIIPTLEPLPPHEVPGHQSVFMNEPRLSDFKQVLLREGIQAEFVGGVLVCNNQVAVRRTETGRIGLEGCLCQDFYRIRDLLYEQYAIV
B3: SFXN2 (protein, UniProt Q96NB2 1-322, looked up)
Sideroflexin-2: MEADLSGFNIDAPRWDQRTFLGRVKHFLNITDPRTVFVSERELDWAKVMVEKSRMGVVPPGTQVEQLLYAKKLYDSAFHPDTGEKMNVIGRMSFQLPGGMIITGFMLQFYRTMPAVIFWQWVNQSFNALVNYTNRNAASPTSVRQMALSYFTATTTAVATAVGMNMLTKKAPPLVGRWVPFAAVAAANCVNIPMMRQQELIKGICVKDRNENEIGHSRRAAAIGITQVVISRITMSAPGMILLPVIMERLEKLHFMQKVKVLHAPLQVMLSGCFLIFMVPVACGLFPQKCELPVSYLEPKLQDTIKAKYGELEPYVYFNKGL

System: BAF complex subunits and histone proteins
Test: Mass spectrometry proteomics of purified HA-SS18 WT and HA-SS18-SSX1 complexes (Tables 5A-5E)
Parameters: species or system human
Conditions: HEK-293T; for Total (peptides) / Unique (peptides): HA-SS18WT_NE_peptides: HA-SS18 WT complexes purified from nuclear extract (NE), label = protein identified (Gene Symbol)
[1] = HA-SS18SSX1 purification, NE (soluble nuclear extract) fraction, peptides per identified protein
[2] = HA-SS18WT_CHR_peptides: protein identified in HA-SS18 WT BAF complex purification from nuclease-treated solubilized chromatin (CHR)

| Molecule | Total (total peptides) [1] | Unique (unique peptides) [1] | Total (total peptides) [2] | Unique (unique peptides) [2] | Total (peptides) | Unique (peptides) |
| --- | --- | --- | --- | --- | --- | --- |
| B1 | 7 | 6 | 2 | 2 | 7 | 7 |
| B2 | 6 | 6 |  |  | 7 | 7 |
| B3 | 6 | 6 |  |  | 4 | 4 |
